{
  "sequences": {"note": "Sequences of proteins named here, by UniProt entry; tags and fusion partners are left off.", "UniProt Q0JBA9, entry or part of it": "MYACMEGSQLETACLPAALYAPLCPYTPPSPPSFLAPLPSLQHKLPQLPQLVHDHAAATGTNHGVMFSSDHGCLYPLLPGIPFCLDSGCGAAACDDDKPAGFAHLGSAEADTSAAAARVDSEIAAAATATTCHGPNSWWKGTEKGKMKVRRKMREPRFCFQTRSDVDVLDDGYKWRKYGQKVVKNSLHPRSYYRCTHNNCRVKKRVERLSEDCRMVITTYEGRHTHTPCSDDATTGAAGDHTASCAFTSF"},
  "source": "paper PMC7819943",
  "about": "“Rice protein-binding microarrays: a tool to detect cis-acting elements near promoter regions in rice”",
  "note": "The other results are listed elsewhere or left out.",
  "data": [
    {"molecular_target": "OsWRKY34 (Oryza sativa, UniProt Q0JBA9 1-250)", "experiment": "protein-binding microarray (RPBM); PBS, 2% BSA, 51.3 ng/ul salmon testes DNA, 50 uM zinc acetate, 200 nM TF, 25 C, 1 h; high values mean tight binding", "details": "protein: recombinant; tags: N-terminal polyhistidine and DsRed monomer fusion (pET32a); label: CyDye5-dUTP incorporated in the synthesized complementary strand; 3' TTTTT single-stranded linker to array surface; dsDNA, one strand shown", "outline": "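The binding signal for each feature is its fluorescence intensity in arbitrary units. An Axon 4000B scanner was used to read a custom Agilent array that had been made double-stranded with Cy5-dUTP primer extension, blocked with 2% BSA, incubated at 25 °C for 1 h with 200 nM protein in PBS, 2% BSA, salmon testes DNA and 50 µM zinc acetate, and washed. The protein was an N-terminal polyhistidine–DsRed transcription factor fusion from E. coli BL21-CodonPlus, purified on Ni–NTA.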", "values": [
      {"sequence": "TACCCACCCCACCGAACCCTAACCAATCCTAGCCACCGCCCGGAGTCACCTAGTGCAG", "binding signal": "10100 fluorescence intensity (a.u.)"},
      {"sequence": "TGTTTGACGCCGTTGACTTTTTTAAACATGTTTGACCATTCGGAGTCACCTAGTGCAG", "binding signal": "34200 fluorescence intensity (a.u.)"},
      {"sequence": "CCTATTGGAAAATTTTCTTTTTTTTGTCTATCTCTCTTATCGGAGTCACCTAGTGCAG", "binding signal": "11100 fluorescence intensity (a.u.)"},
      {"sequence": "TAGTTTTGTTCTTTGTCTATATTTAATACTCTATATCTATCGGAGTCACCTAGTGCAG", "binding signal": "8590 fluorescence intensity (a.u.)"},
      {"sequence": "TGTTCACCGTCCATTCCATTATGTCGTGCGGTTTATGCATCGGAGTCACCTAGTGCAG", "binding signal": "11800 fluorescence intensity (a.u.)"},
      {"sequence": "TGCAGAGATCATGGACACACACATGGACCTATGGCATTTTCGGAGTCACCTAGTGCAG", "binding signal": "8190 fluorescence intensity (a.u.)"},
      {"sequence": "GAATTGAATTGAAGGTTCTTGGGTGCTTTCTTTTCCAGTTCGGAGTCACCTAGTGCAG", "binding signal": "8070 fluorescence intensity (a.u.)"},
      {"sequence": "CCGGCCTCTTGCCTCCGCTCCGCGCTCTCATCACACATCTCGGAGTCACCTAGTGCAG", "binding signal": "10100 fluorescence intensity (a.u.)"},
      {"sequence": "GAGTGCAACATATGATGATTTCTTTTTCTTCTGCCCATAACGGAGTCACCTAGTGCAG", "binding signal": "8250 fluorescence intensity (a.u.)"},
      {"sequence": "CGTCGGATTCCTGCCCGGAACTAGCTCGATCTCACTCGTTCGGAGTCACCTAGTGCAG", "binding signal": "8090 fluorescence intensity (a.u.)"},
      {"sequence": "GTGTTCGTTAATGGTATTTCTTGGATTGGAGGGCTCGTGACGGAGTCACCTAGTGCAG", "binding signal": "8150 fluorescence intensity (a.u.)"},
      {"sequence": "AACCCATGCCTTCTCATCTCACTTGCACGCACCTACCCTTCGGAGTCACCTAGTGCAG", "binding signal": "8490 fluorescence intensity (a.u.)"},
      {"sequence": "ACATTTCACTTCATCGTCTCGATCGATCGAGCTTCGAGCACGGAGTCACCTAGTGCAG", "binding signal": "8050 fluorescence intensity (a.u.)"},
      {"sequence": "ATCGTCGCTCGCCGGTGAGCATCCCTCCCTACCCACACCTCGGAGTCACCTAGTGCAG", "binding signal": "9070 fluorescence intensity (a.u.)"},
      {"sequence": "CTTGCTTTTAGTATTTGTTCATTCATGTTACTTCGAATTGCGGAGTCACCTAGTGCAG", "binding signal": "9560 fluorescence intensity (a.u.)"},
      {"sequence": "CCATCCAACCCTGTTTTTACTTTGGAATGCATAATCTTTTCGGAGTCACCTAGTGCAG", "binding signal": "9400 fluorescence intensity (a.u.)"},
      {"sequence": "ACTTTTTTTGGTGACTATGTGTTTCCCTGTGGTGGGCTTCCGGAGTCACCTAGTGCAG", "binding signal": "12000 fluorescence intensity (a.u.)"},
      {"sequence": "CACACACACTCTACATGGAACGTTCACATATGGATTCTCACGGAGTCACCTAGTGCAG", "binding signal": "8910 fluorescence intensity (a.u.)"},
      {"sequence": "TCCCGCTGGCCGCTGCTCCAACCCGTGCTCTCCGTGGCCGCGGAGTCACCTAGTGCAG", "binding signal": "9600 fluorescence intensity (a.u.)"},
      {"sequence": "TAGCATTTTTCCCACCAGTCTTCTCACGAACGCACGAAAGCGGAGTCACCTAGTGCAG", "binding signal": "8370 fluorescence intensity (a.u.)"},
      {"sequence": "TGCCAATGCCATTGGCGAATTCGCGTTACGTCTACGAAAACGGAGTCACCTAGTGCAG", "binding signal": "8430 fluorescence intensity (a.u.)"},
      {"sequence": "GAACTTTTTGTACCTGTTGGTGTTGGATCTTTTTTTTTTACGGAGTCACCTAGTGCAG", "binding signal": "9540 fluorescence intensity (a.u.)"},
      {"sequence": "CATTAGGACCTCGATCACTTAACTGTATGCAATATATCCTCGGAGTCACCTAGTGCAG", "binding signal": "8490 fluorescence intensity (a.u.)"},
      {"sequence": "AGTTCATTCTCGATCTGCCAACTTCATTCTCCCGTCTATACGGAGTCACCTAGTGCAG", "binding signal": "9270 fluorescence intensity (a.u.)"},
      {"sequence": "TGGGTTTTACGGTTTTACCCTCTCGGGCTTGAGGGGAGAGCGGAGTCACCTAGTGCAG", "binding signal": "47600 fluorescence intensity (a.u.)"},
      {"sequence": "TCATCTGTGTCAATCTCTCTTCTAACTCCTACGTTTTTTTCGGAGTCACCTAGTGCAG", "binding signal": "8650 fluorescence intensity (a.u.)"},
      {"sequence": "TGTTGTCTACTCTTTCTTCGACTACAGAGTTATGGTGGATCGGAGTCACCTAGTGCAG", "binding signal": "8170 fluorescence intensity (a.u.)"},
      {"sequence": "TGAATTTTGGTAGGATGGGGATGGGGAACTGAGGAAGGAACGGAGTCACCTAGTGCAG", "binding signal": "8320 fluorescence intensity (a.u.)"},
      {"sequence": "TCTCCCGTCTCCGTATCCTCCGCTCCTTCGCCATCTCGCGCGGAGTCACCTAGTGCAG", "binding signal": "15700 fluorescence intensity (a.u.)"},
      {"sequence": "GGGTTATTTTGCAAATTTTCACCGCGAGTAGAGTAACTTTCGGAGTCACCTAGTGCAG", "binding signal": "9870 fluorescence intensity (a.u.)"},
      {"sequence": "TAAATCATAAGCTCGATATTAGTTTTGGAGTCTACATGACCGGAGTCACCTAGTGCAG", "binding signal": "10200 fluorescence intensity (a.u.)"},
      {"sequence": "CGACTCCGGCGATTTCTTCCGCTGCATCAACACCCGTTTCCGGAGTCACCTAGTGCAG", "binding signal": "10700 fluorescence intensity (a.u.)"},
      {"sequence": "AATTATTAATTTTTTTCCTATTATTTGATTTATTGTTAAACGGAGTCACCTAGTGCAG", "binding signal": "9560 fluorescence intensity (a.u.)"},
      {"sequence": "CCAATTAAACCCTACTCTCTCTCTCTCTCTCTCTCTCTCTCGGAGTCACCTAGTGCAG", "binding signal": "11100 fluorescence intensity (a.u.)"},
      {"sequence": "TTAACTGTCCTGGTCAAAATCCGTCCTCACACGCGCGAATCGGAGTCACCTAGTGCAG", "binding signal": "10000 fluorescence intensity (a.u.)"},
      {"sequence": "CCTGCGGATTCCCACCCTGATTTTCGCCGTTTGTTTGTTTCGGAGTCACCTAGTGCAG", "binding signal": "9090 fluorescence intensity (a.u.)"},
      {"sequence": "GATGGATCGGTTAGTCTTGTTAATTTCGTCATCAGCTTATCGGAGTCACCTAGTGCAG", "binding signal": "11700 fluorescence intensity (a.u.)"},
      {"sequence": "GCCCACTTGTCAATCTCTCTTTCTCTGTTCTTCTTCGACACGGAGTCACCTAGTGCAG", "binding signal": "8870 fluorescence intensity (a.u.)"}
    ]}
  ]
}
